{"source": "patent US6977262B2", "about": "“Dihydropyrazolopyridine compounds and pharmaceutical use thereof” (Mitsubishi Pharma Corporation, priority 2001, dated 2005)", "data": [{"smiles": "CCOC(=O)C1=C(CC)Nc2n[nH]cc2C1c1cccc2nonc12", "note": "(stereo not shown) [Example 240, Ethyl 4-(2,1,3-benzoxadiazol-4-yl)-6-ethyl-4,7-dihydro-2H-pyrazolo[3,4-b]pyridine-5-carboxylate]", "values": [{"measurement": "melting point", "value": 196, "unit": "°C"}]}]}
